Reference: paper PMC8953162
Results are given in words; binding and its absence hold for the method and conditions named. Binding seen in cells or lysates may run through a third protein. Some binding calls cover weakened binding; strength is not graded here.

Amino acid sequences for entries named in this document (tags omitted). A change or cut given only in a name is not applied to a line headed by its entry.
UniProt P35367: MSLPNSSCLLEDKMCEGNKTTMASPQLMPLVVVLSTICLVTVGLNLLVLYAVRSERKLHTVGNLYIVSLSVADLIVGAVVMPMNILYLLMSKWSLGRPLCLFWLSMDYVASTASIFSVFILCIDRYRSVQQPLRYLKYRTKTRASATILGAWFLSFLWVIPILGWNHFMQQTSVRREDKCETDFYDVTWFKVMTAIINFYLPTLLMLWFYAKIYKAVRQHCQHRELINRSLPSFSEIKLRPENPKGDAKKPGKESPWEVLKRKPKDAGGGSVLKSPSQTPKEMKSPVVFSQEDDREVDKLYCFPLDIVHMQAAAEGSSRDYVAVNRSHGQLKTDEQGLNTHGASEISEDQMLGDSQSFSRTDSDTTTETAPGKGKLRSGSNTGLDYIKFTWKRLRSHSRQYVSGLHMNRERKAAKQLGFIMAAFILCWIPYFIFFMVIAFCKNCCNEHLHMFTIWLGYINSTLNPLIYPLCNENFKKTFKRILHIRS
UniProt P32121: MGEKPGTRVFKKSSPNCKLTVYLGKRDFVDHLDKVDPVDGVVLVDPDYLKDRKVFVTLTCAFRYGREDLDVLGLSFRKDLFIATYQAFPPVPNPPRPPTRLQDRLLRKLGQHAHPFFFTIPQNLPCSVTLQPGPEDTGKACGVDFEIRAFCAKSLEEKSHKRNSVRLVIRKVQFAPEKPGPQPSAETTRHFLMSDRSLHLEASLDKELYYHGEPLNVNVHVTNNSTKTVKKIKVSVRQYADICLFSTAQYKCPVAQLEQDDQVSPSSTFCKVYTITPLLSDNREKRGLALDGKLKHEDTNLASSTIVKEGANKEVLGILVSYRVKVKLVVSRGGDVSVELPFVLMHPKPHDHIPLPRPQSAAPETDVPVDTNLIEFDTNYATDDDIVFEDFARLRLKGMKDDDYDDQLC
UniProt P49407: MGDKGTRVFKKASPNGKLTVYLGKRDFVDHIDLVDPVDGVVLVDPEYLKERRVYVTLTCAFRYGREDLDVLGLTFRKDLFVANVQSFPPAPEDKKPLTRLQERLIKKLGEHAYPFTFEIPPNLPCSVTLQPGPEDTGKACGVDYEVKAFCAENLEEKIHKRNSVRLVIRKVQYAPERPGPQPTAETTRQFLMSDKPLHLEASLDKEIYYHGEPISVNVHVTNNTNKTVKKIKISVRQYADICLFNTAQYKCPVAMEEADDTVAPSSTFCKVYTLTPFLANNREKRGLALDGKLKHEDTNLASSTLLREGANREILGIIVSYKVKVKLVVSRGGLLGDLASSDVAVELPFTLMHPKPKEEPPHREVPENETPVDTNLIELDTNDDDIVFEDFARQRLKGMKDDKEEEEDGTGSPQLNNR
UniProt P35626: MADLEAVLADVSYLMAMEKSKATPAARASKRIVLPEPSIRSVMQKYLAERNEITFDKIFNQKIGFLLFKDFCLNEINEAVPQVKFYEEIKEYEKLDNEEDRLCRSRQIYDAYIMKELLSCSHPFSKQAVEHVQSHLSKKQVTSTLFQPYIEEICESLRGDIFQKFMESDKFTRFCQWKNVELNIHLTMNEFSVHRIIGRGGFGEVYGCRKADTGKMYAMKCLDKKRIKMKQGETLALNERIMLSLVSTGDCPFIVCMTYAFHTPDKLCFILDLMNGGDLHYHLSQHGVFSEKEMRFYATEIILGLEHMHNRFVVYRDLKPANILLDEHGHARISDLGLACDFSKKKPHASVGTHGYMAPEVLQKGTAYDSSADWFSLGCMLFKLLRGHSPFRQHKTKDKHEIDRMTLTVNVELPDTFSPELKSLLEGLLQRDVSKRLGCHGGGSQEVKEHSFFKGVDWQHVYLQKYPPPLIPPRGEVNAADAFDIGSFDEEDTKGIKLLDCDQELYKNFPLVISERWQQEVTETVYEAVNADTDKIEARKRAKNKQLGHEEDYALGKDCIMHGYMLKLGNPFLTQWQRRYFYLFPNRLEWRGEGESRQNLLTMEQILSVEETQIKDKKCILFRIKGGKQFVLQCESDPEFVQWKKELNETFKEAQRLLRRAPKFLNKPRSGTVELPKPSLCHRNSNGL
UniProt P25098: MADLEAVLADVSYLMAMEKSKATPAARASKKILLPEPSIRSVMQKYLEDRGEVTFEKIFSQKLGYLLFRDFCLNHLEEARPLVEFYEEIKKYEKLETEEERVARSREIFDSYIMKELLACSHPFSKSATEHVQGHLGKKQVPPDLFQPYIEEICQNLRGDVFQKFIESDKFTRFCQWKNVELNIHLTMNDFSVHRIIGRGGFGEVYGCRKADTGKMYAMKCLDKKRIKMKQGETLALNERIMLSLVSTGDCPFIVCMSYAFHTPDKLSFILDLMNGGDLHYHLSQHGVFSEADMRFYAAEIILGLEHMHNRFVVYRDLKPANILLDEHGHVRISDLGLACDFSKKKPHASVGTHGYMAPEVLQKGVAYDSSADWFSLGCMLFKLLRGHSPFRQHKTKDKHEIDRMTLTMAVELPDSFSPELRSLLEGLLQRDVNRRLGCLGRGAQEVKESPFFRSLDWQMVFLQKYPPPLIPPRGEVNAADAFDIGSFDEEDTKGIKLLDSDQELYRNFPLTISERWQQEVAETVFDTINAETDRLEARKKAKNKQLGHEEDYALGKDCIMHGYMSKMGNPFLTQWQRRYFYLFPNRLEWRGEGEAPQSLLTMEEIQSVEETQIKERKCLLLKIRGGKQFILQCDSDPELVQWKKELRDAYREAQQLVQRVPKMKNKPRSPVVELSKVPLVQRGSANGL

What follows are substances tested against Human histamine H1 receptor fused to Renilla luciferase 8 (H1R-Rluc8) (human) (UniProt P35367) (assay: FRET or BRET; BRET in living HEK293T cells co-expressing H1R-Rluc8 (donor) and an eYFP/mVenus fusion (acceptor); 5 µM coelenterazine-h in HBSS at 37 °C; basal BRET, then 10 µM histamine in real time or increasing concentrations of agonist for 1 h; ΔBRET against vehicle; 30-min pretreatment with vehicle, 3 µM cmpd101 or 1 µM UBO-QIC in some panels).

binding	Substance
binds	β-arrestin2-mVenus (from UniProt P32121 1-409)
binds	β-arrestin1-enhanced yellow fluorescent protein (eYFP) (from UniProt P49407 1-418)
binds	GPCR kinase 3 fused to mVenus (GRK3-mVenus) (from UniProt P35626 1-688) (enzyme)
binds	GPCR kinase 2 fused to mVenus (GRK2-mVenus) (from UniProt P25098 1-689) (enzyme)
